PubChem BioAssay AID1159578 – Peter MacCallum Cancer Centre | 2015

Assay: 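Genome-wide hunt for genes controlling movement of lymphatic endothelial cells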 (primary screen)
Cells: human lymphatic endothelial cells
Reagent: siRNA pool against human genes, 40 nM
Time to read-out: 48 h after transfection
Measured: 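High-content imaging of dye-stained cells in a scratch assay measures filled wound area and nuclei per well; duplicate means given as ratio to mock and robust z-score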
Reading the numbers: migration robust z-score: higher = faster migration into the scratch; migration relative to mock: higher = more scratch area covered than mock; nuclei per well: higher = more cells in the well
Hit rule: 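Pools averaging fewer than 3300 nuclei are never called; remaining pools count as changed when migration robust z lies outside -2 to 2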
Calls: active = migration changed; inactive = no migration change, or too few cells
The whole screen tested about 18,000 reagents; this is an unselected part. About 1,030 of them (5.7%) count as active. 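Inactive calls also include pools with fewer than 3300 nuclei, whose migration was not assessed.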 The raw values are shown without normalisation.

no.	gene knocked down	migration robust z-score	migration class with cell-count check	migration relative to mock	nuclei per well, duplicate mean	activity call
1	BCL2L11 (BCL2 like 11)	-0.46	migration z between -2 and 2; enough cells	0.72	6217	inactive
2	ACOT7 (acyl-CoA thioesterase 7)	0.8	migration z between -2 and 2; enough cells	0.96	5407	inactive
3	STC1 (stanniocalcin 1)	0.78	migration z between -2 and 2; enough cells	1.09	5520	inactive
4	POLR3E (RNA polymerase III subunit E)	0.49	migration z between -2 and 2; enough cells	1.01	6464	inactive
5	SNX4 (sorting nexin 4)	-0.99	migration z between -2 and 2; enough cells	0.62	4895	inactive
6	AMIGO3 (adhesion molecule with Ig like domain 3)	-1.56	migration z between -2 and 2; enough cells	0.48	5754	inactive
7	TAFAZZIN (tafazzin, phospholipid-lysophospholipid transacylase)	-0.8	migration z between -2 and 2; enough cells	0.65	6191	inactive
8	COX18 (cytochrome c oxidase assembly factor COX18)	-0.01	migration z between -2 and 2; enough cells	0.88	5154	inactive
9	RWDD1 (RWD domain containing 1)	0.67	migration z between -2 and 2; enough cells	1.06	6306	inactive
10	UGT1A7 (UDP glucuronosyltransferase family 1 member A7)	-2.59	migration z below -2; enough cells	0.21	5514	active
11	SLC25A5	-0.2	migration z between -2 and 2; enough cells	0.76	7186	inactive
12	SLC2A13	0.86	migration z between -2 and 2; enough cells	0.97	5744	inactive
13	LIMS2 (LIM zinc finger domain containing 2)	-1.12	migration z between -2 and 2; enough cells	0.6	3548	inactive
14	CLOCK (clock circadian regulator)	1.3	migration z between -2 and 2; enough cells	1.06	6145	inactive
15	CHST2 (carbohydrate sulfotransferase 2)	0.14	migration z between -2 and 2; enough cells	0.92	5114	inactive
16	H3C2 (H3 clustered histone 2)	-0.14	migration z between -2 and 2; enough cells	0.84	5090	inactive
17	KLF13 (KLF transcription factor 13)	0.78	migration z between -2 and 2; enough cells	0.96	5930	inactive
18	PCDHA8 (protocadherin alpha 8)	-0.16	migration z between -2 and 2; enough cells	0.84	6986	inactive
19	UROD (uroporphyrinogen decarboxylase)	0.38	migration z between -2 and 2; enough cells	0.88	5676	inactive
20	UBOX5 (U-box domain containing 5)	0.36	migration z between -2 and 2; enough cells	0.88	6880	inactive
21	NKIRAS1 (NFKB inhibitor interacting Ras like 1)	-1.27	under 3300 nuclei; migration not judged	0.56	686	inactive
22	SLC22A4	0.38	migration z between -2 and 2; enough cells	0.88	5058	inactive
23	IZUMO1 (izumo sperm-oocyte fusion 1)	-0.2	migration z between -2 and 2; enough cells	0.84	6028	inactive
24	RGL3 (ral guanine nucleotide dissociation stimulator like 3)	-1.02	migration z between -2 and 2; enough cells	0.62	5921	inactive
25	ESRRB (estrogen related receptor beta)	0.52	migration z between -2 and 2; enough cells	0.9	4546	inactive
26	ST8SIA5 (ST8 alpha-N-acetyl-neuraminide alpha-2,8-sialyltransferase 5)	-1.02	migration z between -2 and 2; enough cells	0.61	5820	inactive
27	P2RX4 (purinergic receptor P2X 4)	-0.21	migration z between -2 and 2; enough cells	0.76	4501	inactive
28	CLIC4 (CLIC family member 4)	-2.69	migration z below -2; enough cells	0.28	3382	active
29	DNMT3L (DNA methyltransferase 3 like)	0.2	migration z between -2 and 2; enough cells	0.84	4098	inactive
30	RGPD1 (RANBP2 like and GRIP domain containing 1)	0.24	migration z between -2 and 2; enough cells	0.95	5639	inactive
31	GALNT14 (polypeptide N-acetylgalactosaminyltransferase 14)	0.47	migration z between -2 and 2; enough cells	0.9	7006	inactive
32	TUBB2B (tubulin beta 2B class IIb)	-0.39	migration z between -2 and 2; enough cells	0.78	6098	inactive
33	DRC10 (dynein regulatory complex subunit 10)	2.69	migration z above 2; enough cells	1.58	7354	active
34	ELL2 (elongation factor for RNA polymerase II 2)	-0.54	migration z between -2 and 2; enough cells	0.74	6647	inactive
35	ZNF473 (zinc finger protein 473)	-0.73	migration z between -2 and 2; enough cells	0.7	5620	inactive
36	FMO5 (flavin containing dimethylaniline monoxygenase 5)	0.52	migration z between -2 and 2; enough cells	0.9	5660	inactive
37	KRT84 (keratin 84)	1.88	migration z between -2 and 2; enough cells	1.38	7189	inactive
38	PCDHA7 (protocadherin alpha 7)	-0.46	migration z between -2 and 2; enough cells	0.76	6386	inactive
39	MARCHF10 (membrane associated ring-CH-type finger 10)	-2.54	migration z below -2; enough cells	0.32	4032	active
40	PKIB (cAMP-dependent protein kinase inhibitor beta)	0.29	migration z between -2 and 2; enough cells	0.86	4464	inactive
41	DRP2 (dystrophin related protein 2)	0.28	migration z between -2 and 2; enough cells	0.96	6082	inactive
42	CCL13 (C-C motif chemokine ligand 13)	-1.82	migration z between -2 and 2; enough cells	0.46	5070	inactive
43	RIBC1 (RIB43A domain with coiled-coils 1)	0.48	migration z between -2 and 2; enough cells	1	4242	inactive
44	ZNF513 (zinc finger protein 513)	-2.43	under 3300 nuclei; migration not judged	0.25	2036	inactive
45	CNNM2	1.54	migration z between -2 and 2; enough cells	1.29	5990	inactive
46	FMNL1 (formin like 1)	0.42	migration z between -2 and 2; enough cells	1	5768	inactive
47	UBE3A (ubiquitin protein ligase E3A)	-0.1	migration z between -2 and 2; enough cells	0.78	5166	inactive
48	UBXN4 (UBX domain protein 4)	-0.98	migration z between -2 and 2; enough cells	0.63	6057	inactive
49	STARD5 (StAR related lipid transfer domain containing 5)	0.99	migration z between -2 and 2; enough cells	1.15	5977	inactive
50	TBPL2 (TATA-box binding protein like 2)	0.57	migration z between -2 and 2; enough cells	1.04	6038	inactive
51	KIAA2012	0.38	migration z between -2 and 2; enough cells	0.98	5892	inactive
52	H4C4 (H4 clustered histone 4)	-0.01	migration z between -2 and 2; enough cells	0.88	5960	inactive
53	ELN (elastin)	-0.43	migration z between -2 and 2; enough cells	0.77	5392	inactive
54	NXPE1 (neurexophilin and PC-esterase domain family member 1)	0.87	migration z between -2 and 2; enough cells	1.11	6556	inactive
55	TMEM185A (transmembrane protein 185A)	0.43	migration z between -2 and 2; enough cells	1	4326	inactive
56	NAT8B (N-acetyltransferase 8B (putative, gene/pseudogene))	-0.8	migration z between -2 and 2; enough cells	0.65	5724	inactive
57	MYO1A (myosin IA)	0.36	migration z between -2 and 2; enough cells	0.88	6995	inactive

8 entries already listed, ordered by “migration relative to mock”, high to low:
gene knocked down	migration robust z-score	migration class with cell-count check	migration relative to mock	nuclei per well, duplicate mean	activity call
DRC10 (dynein regulatory complex subunit 10)	2.69	migration z above 2; enough cells	1.58	7354	active
RGPD1 (RANBP2 like and GRIP domain containing 1)	0.24	migration z between -2 and 2; enough cells	0.95	5639	inactive
GALNT14 (polypeptide N-acetylgalactosaminyltransferase 14)	0.47	migration z between -2 and 2; enough cells	0.9	7006	inactive
DNMT3L (DNA methyltransferase 3 like)	0.2	migration z between -2 and 2; enough cells	0.84	4098	inactive
TUBB2B (tubulin beta 2B class IIb)	-0.39	migration z between -2 and 2; enough cells	0.78	6098	inactive
P2RX4 (purinergic receptor P2X 4)	-0.21	migration z between -2 and 2; enough cells	0.76	4501	inactive
ST8SIA5 (ST8 alpha-N-acetyl-neuraminide alpha-2,8-sialyltransferase 5)	-1.02	migration z between -2 and 2; enough cells	0.61	5820	inactive
CLIC4 (CLIC family member 4)	-2.69	migration z below -2; enough cells	0.28	3382	active
